This is one part of the list. Cut-off read from the data, not from the text of the source: active = 2 or more and inactive = the rest. Repeats in this data set agree poorly, so a single value says little.
system: Lgr5 (MarsCy1-Lgr5-EGFP, U2OS); test: cell-surface Lgr5 expression (SCi1 fluorescence, background-subtracted) relative to WT DMSO (fold of DMSO control); higher = more Lgr5 at the plasma membrane; details: U2OS MarsCy1-Lgr5-EGFP stable; treatment time: overnight; library: ActiProbe-5K (TimTec); 25 µM

cell-surface Lgr5 expression, inactive:
CS(=O)(=O)c1ccc2nc(NS(=O)(=O)c3ccc(F)cc3)sc2c1 1.22
O=[N+]([O-])C1=Cc2ccccc2OC1c1ccccc1 (stereo not given) 1.06
CCN(CC)CCN/C(=N\O)c1nonc1N 1.27
CC(C)c1nc(C#N)c(N2CCOCC2)o1 1.11
COc1cc(OC)c2cc[nH]c2c1 1.27
COc1c2c(c(Br)c([N+](=O)[O-])c1[N+](=O)[O-])OCCO2 1.61
S=c1[nH]nc(-c2ccccc2)n1-c1ccccc1 1.41
CC1CN(c2ccc([N+](=O)[O-])c(NC3CC3)c2)CC(C)O1 (stereo not given) 1.35
COC(=O)Nc1ncc(CN2CCOCC2)s1 0.733
COc1nc(-n2nc(C)cc2C)nc(-n2nc(C)cc2C)n1 1.25
N#Cc1c(SCC(=O)C23CC4CC(CC(C4)C2)C3)sc2c(O)nc(=O)[nH]c12 1.19
COc1cc2c(cc1OC)CC1(C2)c2ccccc2CN1C 1.12
N#Cc1ccc(CSc2ncccn2)cc1 1.52
CCCc1nc(N)c(C#N)c(-c2ccco2)c1CC 1.42
O1C([n@]2cc(c([nH]c2=O)=O)CO)C(C(C1CO)O)O (stereo not given) 1.02
Oc1ccc(/C=N/NC(=S)S)cc1 1
OCC(O)/C=N/Nc1nc(N2CCOCC2)nc(N2CCOCC2)n1 (stereo not given) 1.06
O=C1N(O)C2(C=CCCC2)C(=O)C12CCCCC2 (stereo not given) 1.31
OCc1nnn(-c2nc(N3CCOCC3)nc(N3CCOCC3)n2)c1CO 0.985
Cc1cc(C)n(CC(=O)O)c(=O)c1[N+](=O)[O-] 1.2
O=C1Nc2ccccc2/C1=N\c1ccccc1/N=C1/C(=O)Nc2ccccc21 1.13
CCOC(=O)CN1C(=O)S/C(=C\c2ccc(N3CCCC3)o2)C1=O 1.18
O=C(O)c1nn[nH]c1C(=O)O 1.83
Cc1cc(Cc2cc(C(C)(C)C)c(O)c(C(C)(C)C)c2)c(O)c(C(C)(C)C)c1 0.995
NS(=O)(=O)c1cc(Cl)ccc1F 1.37
O=C(NCC1CCCO1)c1cccs1 (stereo not given) 0.874
CC12CNC3(C#N)CC1CCC32C (stereo not given) 1.03
CCCN1c2ccccc2-c2c(ssc2=S)C1(C)C 0.976
CC(C)N1CC(C(=O)O)CC1=O (stereo not given) 1.07
N#C/C(=C/c1ccccc1Cl)c1ccccc1 1.73
CN(C)C(=S)c1ccc(C#N)cc1 1.2
Brc1ccc(/C=N/C23CN4CN(CN(C4)C2)C3)cc1 1.13
O=C(NCN1CCCCC1)C12CC3CC(CC(C3)C1)C2 1.07
O=C1c2ccccc2C2N1c1ccccc1S(=O)(=O)N2Cc1ccccc1 (stereo not given) 1.47
O=C1NC(=S)N/C1=C\c1cc(Br)cc(Br)c1O 1.06
Fc1ccc(Nc2nc(Oc3ccc4c(c3)OCO4)nc(N3CCOCC3)n2)c(F)c1 1.12
Cn1cnc2c(=O)[nH]c(N)nc21 1.03
CN(c1nc(-c2ccccc2)cs1)C1CCS(=O)(=O)C1 (stereo not given) 1.08
O=C(Nc1ccc2nsnc2c1)C1CC1 0.855
O=[N+]([O-])c1ccc(-n2cncn2)c(F)c1 1.07
NCCN1CCC(O)CC1 1.22
O=C1NCCN1C(=O)Nc1ccc(Cl)cc1Cl 0.977
N#Cc1c(C(F)(F)F)cc(-c2cccs2)[nH]c1=O 1.03
COc1ccc(C2=CC(c3ccccc3)SC(=N)N2)cc1 (stereo not given) 1.12
Cc1nc(S)c2ccccc2n1 0.895
CCN1C(N)=C(C#N)C2(CCNCC2)c2nc(C)oc21 0.932
Cn1cccc1CNn1nnnc1N 1.17
COc1cc2c(cc1OC)-c1cc(Br)ccc1C(C#N)C2 (stereo not given) 1.4
CCN(CC)C(=S)SCC(=O)NC12CC3CC(CC(C3)C1)C2 1.12
Cn1cc(/C(Cc2ccccc2)=N/O)c2ccccc21 0.745
c1ccc2sc(-c3cc[nH]n3)nc2c1 0.941
C1(/C(=C(\C)C)NC(=O)N1)=O 1.2
CC(C)CCc1nnc(N)s1 1.32
Oc1c(Br)cc(Br)cc1/C=N\c1ccc(F)cc1 0.936
Nc1nonc1-c1noc(-c2ccco2)n1 1.09

3 structures already listed, sorted by length of the SMILES, rising.
cell-surface Lgr5 expression, inactive:
C1(/C(=C(\C)C)NC(=O)N1)=O 1.2
CC(C)c1nc(C#N)c(N2CCOCC2)o1 1.11
O1C([n@]2cc(c([nH]c2=O)=O)CO)C(C(C1CO)O)O (stereo not given) 1.02
